Assay [1] concerns the target human CD8 on human T cells (human) (UniProt P01732). Description: flow cytometry, CD8+ T cells in human PBMCs, 1 h, PE anti-IL12. On the technique in general: In flow cytometry, cells or beads pass a laser one at a time.
For assay [2] the target is unchanged. Description: flow cytometry on human PBMCs, anti-IL12 detection (FIG. 12).

Protein sequences, listed by entry. Tags and fused reporters are not part of them. Lines headed by an entry give the natural chain unless they say otherwise; changes in a name come on top. Residues count along the entry.
UniProt P01732, residues 22-235: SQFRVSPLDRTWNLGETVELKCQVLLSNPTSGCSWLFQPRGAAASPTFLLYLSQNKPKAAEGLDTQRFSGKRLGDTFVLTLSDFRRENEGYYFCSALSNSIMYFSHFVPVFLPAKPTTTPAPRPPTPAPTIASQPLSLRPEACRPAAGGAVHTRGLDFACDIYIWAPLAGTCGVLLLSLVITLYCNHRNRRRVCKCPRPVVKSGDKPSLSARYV
UniProt P01660: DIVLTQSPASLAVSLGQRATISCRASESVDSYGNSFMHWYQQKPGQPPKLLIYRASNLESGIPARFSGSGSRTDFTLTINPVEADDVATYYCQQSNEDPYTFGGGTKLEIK

These are yes or no findings as the source states them, for the method shown. Some entries that bind do so weakly or less than the wild type.

Take “02A01-IgG-IL12 (LC) (from UniProt P01660 1-111)”: the binding entry in assay [1] and in assay [2] was “binds” in each case.

These data come from US20260055186A1.
